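Human melanoma cells were exposed to a pair of drugs for 72 h in 1,536-well plates and read by automated microscopy after fixing and staining. The read-out is the fraction of cleaved-PARP-positive nuclei, in % of that fraction in the DMSO control; 200 means twice the control level of this apoptosis marker. Every drug was used at one fixed concentration, the higher of two screened. No replicate spread is given; individual values may be noisy. The marker varies much from line to line, for technical or biological reasons.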
Only some of the drugs and lines screened are listed, without regard to their results.
An entry leaves out what has no value listed here.

All values are for the listed drug together with dasatinib (20 nM): Cc1nc(Nc2ncc(C(=O)Nc3c(C)cccc3Cl)s2)cc(N2CCN(CCO)CC2)n1

With Cc1cc(SCc2sc(-c3ccc(C(F)(F)F)c(F)c3)nc2C)ccc1OCC(=O)O at 10000 nM the screen read A375: 114; LOX IMVI: 397; WM451Lu: 114; WM115: 157.
With Cn1cc(/C=C2\C(=O)Nc3cccnc32)c2ccccc21 at 2000 nM the screen read A375: 102; LOX IMVI: 473; WM451Lu: 228; WM115: 451.
With CC(C)C[C@H](NC(=O)[C@H](Cc1ccccc1)NC(=O)c1cnccn1)B(O)O at 5 nM the screen read A375: 441; LOX IMVI: 150; WM451Lu: 1210; WM115: 4090.
With Cn1nnc2c(C(N)=O)ncn2c1=O at 10000 nM the screen read A375: 67.3; LOX IMVI: 330; WM451Lu: 175; WM115: 436.
With O=C(O)c1ccc(-c2c[nH]c3ncc(-c4ccccc4)cc23)cc1C1CCCC1 at 800 nM the screen read LOX IMVI: 240; WM451Lu: 59.6; WM115: 291.
With O=S(=O)(c1ccccc1)N(CC(F)(F)F)c1ccc(C(O)(C(F)(F)F)C(F)(F)F)cc1 at 7000 nM the screen read A375: 229; LOX IMVI: 443; WM451Lu: 120; WM115: 215.
With CCN(CC)CCNC(=O)c1c(C)[nH]c(/C=C2\C(=O)Nc3ccc(F)cc32)c1C at 2000 nM the screen read A375: 70.7; LOX IMVI: 67.6; WM451Lu: 162; WM115: 383.
With Cc1cc(Nc2cc(N3CCN(C)CC3)nc(/C=C/c3ccccc3)n2)n[nH]1 at 200 nM the screen read A375: 150; LOX IMVI: 155; WM451Lu: 86.5; WM115: 224.
With NC(=O)Nc1cc(-c2cccc(F)c2)sc1C(=O)N[C@H]1CCCNC1 at 100 nM the screen read LOX IMVI: 410; WM451Lu: 435; WM115: 224.
With C=C(c1ccc(C(=O)O)cc1)c1cc2c(cc1C)C(C)(C)CCC2(C)C at 10000 nM the screen read A375: 332; LOX IMVI: 219; WM451Lu: 93.8; WM115: 70.1.
With CCCCCCCCCCCCCCCCCCOP(=O)([O-])OC1CC[N+](C)(C)CC1 at 2000 nM the screen read A375: 106; LOX IMVI: 540; WM451Lu: 143; WM115: 263.
With N#CC[C@H](C1CCCC1)n1cc(-c2ncnc3[nH]ccc23)cn1 at 5000 nM the screen read A375: 38.8; LOX IMVI: 187; WM451Lu: 248; WM115: 111.
With C[C@]1(O)C[C@@H](c2nc(-c3ccc4ccc(-c5ccccc5)nc4c3)c3c(N)nccn32)C1 at 2000 nM the screen read A375: 450; LOX IMVI: 123; WM451Lu: 241; WM115: 795.
With CN1CCN(c2ccc3nc(-c4c(N)c5c(F)cccc5[nH]c4=O)[nH]c3c2)CC1 at 500 nM the screen read A375: 155; LOX IMVI: 124; WM451Lu: 145; WM115: 236.
With Nc1nc(F)nc2c1ncn2[C@@H]1O[C@H](CO)[C@@H](O)[C@@H]1O at 1000 nM the screen read A375: 706; LOX IMVI: 113; WM451Lu: 194; WM115: 680.

For reference, 2 entries once more:

| Second drug | A375 | LOX IMVI | WM451Lu | WM115 |
|---|---|---|---|---|
| CN1CCN(c2ccc3nc(-c4c(N)c5c(F)cccc5[nH]c4=O)[nH]c3c2)CC1 at 500 nM | 155 | 124 | 145 | 236 |
| CCN(CC)CCNC(=O)c1c(C)[nH]c(/C=C2\C(=O)Nc3ccc(F)cc32)c1C at 2000 nM | 70.7 | 67.6 | 162 | 383 |

From a melanoma drug combination screen (doi:10.1371/journal.pone.0140310); values rounded.